6 sequences from publication PMC4383587 can be followed below.

Chains of the proteins cited; added tags and fusions are not shown. Where a name states a change or a piece, a line headed by the entry shows the natural chain unless it says otherwise. Chains listed by the source or under a name are the forms on record and can include a tag or linker.
GST-Abd-A DBD (Drosophila melanogaster), one chain, as listed by the source: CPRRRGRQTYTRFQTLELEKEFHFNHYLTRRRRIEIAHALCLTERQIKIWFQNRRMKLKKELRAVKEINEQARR

The comparison behind a weaker result is the experiment's own reference, which may not be listed here. For part of these data: Construct, isoform or probe ends are uncertain for at least one entry.

One series concerns the target GST-Abd-B DBD (UniProt P09087). The series can be described thus: EMSA. As to conditions: 50 mM HEPES pH 7.9, 100 mM KCl, 1 mM DTT, 12.5 mM MgCl2, 0.05 mM EDTA, 17% glycerol, 400 ng/ul poly(dI-dC), 20 fmol probe, 0-3000 ng protein, 30 min on ice, recombinant protein, protein details: GST, label: 3' biotin on each strand.
The subject of series [1] is GST-Abd-A DBD (Drosophila melanogaster). The series can be described thus: EMSA. The note with it: little-to-no binding; 50 mM HEPES pH 7.9, 100 mM KCl, 1 mM DTT, 12.5 mM MgCl2, 0.05 mM EDTA, 17% glycerol, 400 ng/ul poly(dI-dC), 20 fmol probe, 0-3000 ng protein, 30 min on ice; recombinant protein; residues 136-209; protein details: N-terminal GST (pGEX4T1); label: 3' biotin on each strand.

“GAGAATTCAAGATCATAATATGTATACTAA (double strand) [Motif 3 (t_MSE2 site S3, Probe 4)]”: the binding result in the series with GST-Abd-B DBD was “binds”.
As to “TTTTTATTACTTCAACTATTCAAATTT (double strand) [Motif 5 (t_MSE2 site S5, Probe 6)]”, in the series with GST-Abd-B DBD, the binding result is on record as “binds”.
For “ATGTATACGCCGCGGACAGTCTCTTTTTTT (double strand) [Motif 4 Mutant (Probe 5 A.8 KO)]”, the binding result (in series [1]; in the series with GST-Abd-B DBD (dramatically reduced)) was “binds more weakly” throughout.
Turning to “ATGTATACTAATTAGACAGTCTCTTTTTTT (double strand) [Motif 4 (t_MSE2 site S4, Probe 5)]”, in the series with GST-Abd-B DBD, the binding result is reported as “binds”.
For the sequence “GAGAATTCAAGATCGCCGTATGTATACTAA (double strand) [Motif 3 Mutant (Probe 4 B.3 KO)]”, the binding result (in series [1]; with GST-Abd-B DBD (dramatically reduced)) was “binds more weakly” throughout.
In the case of “TTTTTGCCGCTTCAACTATTCAAATTT (double strand) [Motif 5 Mutant (Probe 6 B.4 v2 KO)]”, the binding result (in series [1]; with GST-Abd-B DBD (dramatically reduced)) was “binds more weakly” each time.
